The results in this text go back to publication PMC8362855.

Protein sequences, listed by entry. Tags and fused reporters are not part of them.
UniProt P09874: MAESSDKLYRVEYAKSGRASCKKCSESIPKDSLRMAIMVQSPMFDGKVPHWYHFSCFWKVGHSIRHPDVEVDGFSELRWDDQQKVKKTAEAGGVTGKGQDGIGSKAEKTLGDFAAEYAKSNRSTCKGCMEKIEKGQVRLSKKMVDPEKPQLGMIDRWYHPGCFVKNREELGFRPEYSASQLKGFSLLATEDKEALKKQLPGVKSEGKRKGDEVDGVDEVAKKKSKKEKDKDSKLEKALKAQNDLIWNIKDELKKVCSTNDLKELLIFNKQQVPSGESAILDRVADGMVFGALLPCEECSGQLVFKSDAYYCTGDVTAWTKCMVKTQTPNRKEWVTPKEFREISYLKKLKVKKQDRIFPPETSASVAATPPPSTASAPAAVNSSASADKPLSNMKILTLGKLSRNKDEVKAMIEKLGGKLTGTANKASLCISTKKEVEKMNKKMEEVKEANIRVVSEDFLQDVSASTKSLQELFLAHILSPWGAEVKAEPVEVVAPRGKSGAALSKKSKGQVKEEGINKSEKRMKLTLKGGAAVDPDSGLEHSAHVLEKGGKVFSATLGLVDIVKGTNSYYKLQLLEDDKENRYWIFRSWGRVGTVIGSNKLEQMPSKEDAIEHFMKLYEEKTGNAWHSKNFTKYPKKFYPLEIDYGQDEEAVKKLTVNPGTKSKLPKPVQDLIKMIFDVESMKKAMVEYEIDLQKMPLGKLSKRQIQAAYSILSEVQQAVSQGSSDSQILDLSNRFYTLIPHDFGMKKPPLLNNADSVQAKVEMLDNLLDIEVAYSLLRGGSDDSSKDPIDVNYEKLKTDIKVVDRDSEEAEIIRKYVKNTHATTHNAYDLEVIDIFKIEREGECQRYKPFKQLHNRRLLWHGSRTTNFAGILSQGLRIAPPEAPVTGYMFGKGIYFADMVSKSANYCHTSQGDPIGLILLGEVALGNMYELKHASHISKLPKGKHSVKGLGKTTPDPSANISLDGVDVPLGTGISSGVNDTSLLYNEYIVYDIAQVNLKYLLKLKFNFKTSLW

The test concerns the target poly (ADP-ribose) polymerase-1 (UniProt P09874). Description: co-IP; coimmunoprecipitation of VDR and PARP1 (Figure 5J); sample, precipitating antibody and conditions not described.

Results are given in words; binding and its absence hold for the method and conditions named. Binding seen in cells or lysates may run through a third protein. Some binding calls cover weakened binding; strength is not graded here.

B1: vitamin D receptor (receptor, UniProt P11473 1-427)
chain: MEAMAASTSLPDPGDFDRNVPRICGVCGDRATGFHFNAMTCEGCKGFFRRSMKRKALFTCPFNGDCRITKDNRRHCQACRLKRCVDIGMMKEFILTDEEVQRKREMILKRKEEEALKDSLRPKLSEEQQRIIAILLDAHHKTYDPTYSDFCQFRPPVRVNDGGGSHPSRPNSRHTPSFSGDSSSSCSDHCITSSDMMDSSSFSNLDLSEEDSDDPSVTLELSQLSMLPHLADLVSYSIQKVIGFAKMIPGFRDLTSEDQIVLLKSSAIEVIMLRSNESFTMDDMSWTCGNQDYKYRVSDVTKAGHSLELIEPLIKFQVGLKKLNLHEEEHVLLMAICIVSPDRPGVQDAALIEAIQDRLSNTLQTYIRCRHPPPGSHLLYAKMIQKLADLRSLNEEHSKQYRCLSFQPECSMKLTPLVLEVFGNEIS
As for B1, the binding result is recorded as “binds”.
